Test results from PMC5511190.
These are yes or no findings as the source states them, for the method shown. In cells and extracts the contact can be indirect. Some entries that bind do so weakly or less than the wild type.

Chains of the proteins cited; added tags and fusions are not shown. Lines headed by an entry give the natural chain unless they say otherwise; changes in a name come on top. Residues count along the entry.
UniProt Q5S006: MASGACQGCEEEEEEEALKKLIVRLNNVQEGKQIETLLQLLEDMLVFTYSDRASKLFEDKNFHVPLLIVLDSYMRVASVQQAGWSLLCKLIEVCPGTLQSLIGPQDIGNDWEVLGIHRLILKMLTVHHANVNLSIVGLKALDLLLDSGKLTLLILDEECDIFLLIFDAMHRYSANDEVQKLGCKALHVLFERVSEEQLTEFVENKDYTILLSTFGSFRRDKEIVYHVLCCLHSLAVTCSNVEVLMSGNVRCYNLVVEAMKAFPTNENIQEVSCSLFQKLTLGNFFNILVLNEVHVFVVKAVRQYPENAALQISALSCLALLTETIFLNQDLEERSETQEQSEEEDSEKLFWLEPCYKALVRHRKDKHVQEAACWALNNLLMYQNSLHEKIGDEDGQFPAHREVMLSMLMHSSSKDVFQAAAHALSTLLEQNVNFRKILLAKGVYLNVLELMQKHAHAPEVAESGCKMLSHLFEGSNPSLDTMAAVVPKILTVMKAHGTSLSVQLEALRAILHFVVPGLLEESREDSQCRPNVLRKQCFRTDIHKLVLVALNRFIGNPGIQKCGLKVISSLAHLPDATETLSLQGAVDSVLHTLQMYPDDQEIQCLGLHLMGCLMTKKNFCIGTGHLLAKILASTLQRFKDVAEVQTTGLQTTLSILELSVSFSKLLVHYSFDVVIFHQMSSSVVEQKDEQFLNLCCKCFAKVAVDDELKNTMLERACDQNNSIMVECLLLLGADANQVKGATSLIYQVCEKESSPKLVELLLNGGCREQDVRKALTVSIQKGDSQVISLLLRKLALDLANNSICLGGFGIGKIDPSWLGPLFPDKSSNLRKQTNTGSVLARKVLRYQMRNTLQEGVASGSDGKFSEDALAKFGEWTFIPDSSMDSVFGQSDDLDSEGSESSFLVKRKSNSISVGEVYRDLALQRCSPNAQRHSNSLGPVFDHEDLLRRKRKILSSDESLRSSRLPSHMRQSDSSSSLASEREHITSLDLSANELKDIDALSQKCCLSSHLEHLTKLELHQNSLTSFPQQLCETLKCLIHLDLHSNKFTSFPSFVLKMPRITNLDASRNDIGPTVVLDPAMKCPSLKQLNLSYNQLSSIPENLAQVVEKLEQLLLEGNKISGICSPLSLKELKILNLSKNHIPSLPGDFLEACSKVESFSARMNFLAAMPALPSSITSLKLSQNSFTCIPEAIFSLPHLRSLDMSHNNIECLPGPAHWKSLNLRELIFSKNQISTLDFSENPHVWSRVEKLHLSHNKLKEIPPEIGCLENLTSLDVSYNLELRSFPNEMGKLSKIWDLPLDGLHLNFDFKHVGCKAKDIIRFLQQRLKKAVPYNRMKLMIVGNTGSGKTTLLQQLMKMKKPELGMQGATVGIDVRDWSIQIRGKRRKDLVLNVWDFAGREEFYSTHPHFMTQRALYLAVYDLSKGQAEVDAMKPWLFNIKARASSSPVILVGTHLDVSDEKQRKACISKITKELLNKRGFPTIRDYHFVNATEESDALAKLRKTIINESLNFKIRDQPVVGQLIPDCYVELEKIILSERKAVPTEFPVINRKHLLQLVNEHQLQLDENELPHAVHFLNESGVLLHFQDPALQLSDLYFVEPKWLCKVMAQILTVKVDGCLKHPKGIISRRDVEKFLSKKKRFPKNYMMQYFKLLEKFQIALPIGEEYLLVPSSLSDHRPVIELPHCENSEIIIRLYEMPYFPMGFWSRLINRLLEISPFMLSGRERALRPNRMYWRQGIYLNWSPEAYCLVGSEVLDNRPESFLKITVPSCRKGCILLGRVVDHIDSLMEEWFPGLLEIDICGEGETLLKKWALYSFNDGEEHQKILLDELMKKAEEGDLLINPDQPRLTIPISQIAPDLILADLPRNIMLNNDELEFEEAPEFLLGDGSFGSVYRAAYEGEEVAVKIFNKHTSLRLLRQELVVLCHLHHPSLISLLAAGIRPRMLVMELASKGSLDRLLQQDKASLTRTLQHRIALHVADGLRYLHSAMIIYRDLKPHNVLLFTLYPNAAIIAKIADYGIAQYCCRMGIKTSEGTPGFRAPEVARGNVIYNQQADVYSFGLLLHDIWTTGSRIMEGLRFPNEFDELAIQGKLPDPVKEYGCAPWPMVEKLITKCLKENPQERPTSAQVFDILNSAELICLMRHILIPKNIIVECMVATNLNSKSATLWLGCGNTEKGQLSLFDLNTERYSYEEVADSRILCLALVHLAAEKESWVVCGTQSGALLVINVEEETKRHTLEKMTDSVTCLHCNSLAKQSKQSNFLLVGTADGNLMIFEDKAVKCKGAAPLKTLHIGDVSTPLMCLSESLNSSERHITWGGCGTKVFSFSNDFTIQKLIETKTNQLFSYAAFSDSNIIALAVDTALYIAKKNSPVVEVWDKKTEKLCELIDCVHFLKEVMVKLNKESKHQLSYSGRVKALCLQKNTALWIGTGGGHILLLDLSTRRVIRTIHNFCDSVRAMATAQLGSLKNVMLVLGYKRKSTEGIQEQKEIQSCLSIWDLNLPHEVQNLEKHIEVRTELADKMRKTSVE
UniProt Q5S007: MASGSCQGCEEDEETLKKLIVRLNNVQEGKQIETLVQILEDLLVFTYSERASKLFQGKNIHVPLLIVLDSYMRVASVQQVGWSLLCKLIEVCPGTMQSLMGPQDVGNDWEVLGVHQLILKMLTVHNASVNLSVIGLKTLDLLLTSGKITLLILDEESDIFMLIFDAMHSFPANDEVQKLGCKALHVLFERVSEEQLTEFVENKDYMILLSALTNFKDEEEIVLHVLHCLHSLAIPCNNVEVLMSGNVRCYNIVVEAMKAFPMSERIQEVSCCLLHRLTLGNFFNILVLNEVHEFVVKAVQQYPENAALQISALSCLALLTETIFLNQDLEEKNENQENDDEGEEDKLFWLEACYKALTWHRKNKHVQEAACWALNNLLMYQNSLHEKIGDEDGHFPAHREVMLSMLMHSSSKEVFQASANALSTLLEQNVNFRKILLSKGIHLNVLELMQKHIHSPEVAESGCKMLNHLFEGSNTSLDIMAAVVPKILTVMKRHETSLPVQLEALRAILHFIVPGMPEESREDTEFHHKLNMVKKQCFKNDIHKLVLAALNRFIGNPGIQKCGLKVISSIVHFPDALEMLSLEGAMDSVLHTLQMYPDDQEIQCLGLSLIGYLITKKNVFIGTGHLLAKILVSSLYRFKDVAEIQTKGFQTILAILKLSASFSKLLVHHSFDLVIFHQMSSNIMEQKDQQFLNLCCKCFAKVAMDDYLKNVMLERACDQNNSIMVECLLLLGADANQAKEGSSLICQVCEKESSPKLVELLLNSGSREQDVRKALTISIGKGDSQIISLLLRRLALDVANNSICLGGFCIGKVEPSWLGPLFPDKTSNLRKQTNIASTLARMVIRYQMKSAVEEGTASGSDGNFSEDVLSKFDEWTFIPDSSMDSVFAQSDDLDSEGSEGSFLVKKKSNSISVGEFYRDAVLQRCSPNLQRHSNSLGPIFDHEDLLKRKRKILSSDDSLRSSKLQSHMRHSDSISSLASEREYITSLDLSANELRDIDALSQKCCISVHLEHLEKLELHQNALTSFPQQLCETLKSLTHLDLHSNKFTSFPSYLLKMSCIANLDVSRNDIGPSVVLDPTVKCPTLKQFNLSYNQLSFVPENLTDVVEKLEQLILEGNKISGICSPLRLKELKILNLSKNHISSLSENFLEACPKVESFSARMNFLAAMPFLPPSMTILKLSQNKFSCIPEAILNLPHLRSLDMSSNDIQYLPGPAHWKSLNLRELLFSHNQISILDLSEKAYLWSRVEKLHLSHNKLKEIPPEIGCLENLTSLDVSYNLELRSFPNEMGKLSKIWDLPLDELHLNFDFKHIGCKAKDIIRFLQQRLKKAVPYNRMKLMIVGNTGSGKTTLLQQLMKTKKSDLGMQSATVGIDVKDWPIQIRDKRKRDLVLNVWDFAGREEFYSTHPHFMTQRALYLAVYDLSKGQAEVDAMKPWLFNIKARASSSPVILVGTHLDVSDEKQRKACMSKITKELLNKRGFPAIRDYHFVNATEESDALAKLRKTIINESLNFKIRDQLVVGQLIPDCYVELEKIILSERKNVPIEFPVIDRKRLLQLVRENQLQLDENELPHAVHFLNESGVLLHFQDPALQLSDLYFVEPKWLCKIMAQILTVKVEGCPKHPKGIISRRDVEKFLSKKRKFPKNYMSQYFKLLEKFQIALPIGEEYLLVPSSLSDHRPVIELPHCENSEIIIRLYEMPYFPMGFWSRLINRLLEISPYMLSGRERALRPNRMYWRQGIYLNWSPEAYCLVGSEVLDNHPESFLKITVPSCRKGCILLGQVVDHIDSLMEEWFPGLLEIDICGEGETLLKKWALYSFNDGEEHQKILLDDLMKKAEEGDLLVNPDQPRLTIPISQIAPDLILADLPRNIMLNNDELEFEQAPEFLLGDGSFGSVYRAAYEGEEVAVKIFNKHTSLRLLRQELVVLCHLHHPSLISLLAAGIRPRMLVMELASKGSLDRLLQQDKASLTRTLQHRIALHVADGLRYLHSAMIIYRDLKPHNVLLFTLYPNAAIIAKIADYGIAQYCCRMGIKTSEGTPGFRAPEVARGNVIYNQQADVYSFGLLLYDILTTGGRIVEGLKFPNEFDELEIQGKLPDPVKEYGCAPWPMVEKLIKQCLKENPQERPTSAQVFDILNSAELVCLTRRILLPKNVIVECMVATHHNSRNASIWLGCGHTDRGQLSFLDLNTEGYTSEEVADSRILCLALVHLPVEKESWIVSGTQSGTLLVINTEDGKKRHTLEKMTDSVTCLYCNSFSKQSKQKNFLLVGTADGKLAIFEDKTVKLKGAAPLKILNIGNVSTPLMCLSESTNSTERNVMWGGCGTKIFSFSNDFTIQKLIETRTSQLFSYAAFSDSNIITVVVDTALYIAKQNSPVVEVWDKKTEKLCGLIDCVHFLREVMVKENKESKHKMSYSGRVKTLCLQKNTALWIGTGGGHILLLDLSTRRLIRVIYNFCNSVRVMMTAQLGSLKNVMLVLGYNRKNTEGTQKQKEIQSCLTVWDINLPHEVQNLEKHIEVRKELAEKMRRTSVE
Strep-FLAG LRRK2ΔWD40: residues 1-2141 of Q5S007
UniProt P54285: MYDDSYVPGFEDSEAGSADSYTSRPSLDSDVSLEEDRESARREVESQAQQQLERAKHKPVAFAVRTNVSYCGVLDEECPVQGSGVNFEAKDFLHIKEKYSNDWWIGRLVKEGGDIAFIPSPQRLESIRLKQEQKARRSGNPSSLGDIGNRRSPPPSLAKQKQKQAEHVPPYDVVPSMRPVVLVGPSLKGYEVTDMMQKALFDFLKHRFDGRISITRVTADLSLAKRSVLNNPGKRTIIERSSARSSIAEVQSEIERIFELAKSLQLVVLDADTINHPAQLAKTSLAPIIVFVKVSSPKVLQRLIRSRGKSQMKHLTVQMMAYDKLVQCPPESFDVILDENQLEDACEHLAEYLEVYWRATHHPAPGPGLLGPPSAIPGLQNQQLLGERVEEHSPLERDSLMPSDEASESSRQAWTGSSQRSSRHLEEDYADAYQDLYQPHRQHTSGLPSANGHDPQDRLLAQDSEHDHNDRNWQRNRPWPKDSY

Key:
[1] = molecular target: endogenous LRRK2 (Leucine-rich repeat kinase 2) (mouse (endogenous in mouse forebrain and mouse cortical neurons)) (UniProt Q5S006); experiment: co-IP; endogenous LRRK2 precipitated from adult mouse forebrain lysate (1 mg protein; 150 mM NaCl, 2 mM EDTA, 50 mM Tris-HCl, 1% NP-40, 0.25% sodium deoxycholate, pH 7.4) with 4 µg rat anti-LRRK2 (LANK/24D8) and protein G-Sepharose; western blot
[2] = molecular target: Strep-FLAG LRRK2 full-length wild-type (human) (UniProt Q5S007); experiment: pull-down; Strep-FLAG LRRK2 variants over-expressed in N2A cells, 48 h after transfection, precipitated on Strep-Tactin Superflow resin 2 h at 4 °C; washes with 300 mM NaCl, 50 mM Tris-HCl pH 7.4; interacting proteins by western blot
[3] = molecular target: Strep-FLAG LRRK2ΔWD40 (human) (UniProt Q5S007); experiment: as above
[4] = molecular target: endogenous LRRK2 (Leucine-rich repeat kinase 2) (mouse (endogenous in mouse forebrain and mouse cortical neurons)) (UniProt Q5S006); experiment: co-IP; endogenous LRRK2 precipitated from DIV14 mouse cortical cultures incubated with 2 or 10 mM CaCl2 for 30 minutes; rat anti-LRRK2 (LANK/24D8), protein G-Sepharose; western blot
[5] = molecular target: Strep-FLAG LRRK2 full-length G2385R (human) (UniProt Q5S007); experiment: pull-down; Strep-FLAG LRRK2 variants over-expressed in N2A cells, 48 h after transfection, precipitated on Strep-Tactin Superflow resin 2 h at 4 °C; washes with 300 mM NaCl, 50 mM Tris-HCl pH 7.4; interacting proteins by western blot

Measured: binding

β3-CaV 2.1 channel subunit (from UniProt P54285 1-484)
binds: [1] | [2] | [3]

synapsin I (from UniProt O88935 1-706)
not listed: [3]
binds: all other assays above
